The experiment deals with ENO1 (α-enolase) (human (rheumatoid arthritis patient)) (UniProt P06733). The experiment in a line: proteomic analysis using immunoprecipitation (IP)/mass spectroscopy (MS).

The chains behind the UniProt entries cited, without tags or fusion partners. Residues count along the entry.
UniProt P06733, residues 2-434: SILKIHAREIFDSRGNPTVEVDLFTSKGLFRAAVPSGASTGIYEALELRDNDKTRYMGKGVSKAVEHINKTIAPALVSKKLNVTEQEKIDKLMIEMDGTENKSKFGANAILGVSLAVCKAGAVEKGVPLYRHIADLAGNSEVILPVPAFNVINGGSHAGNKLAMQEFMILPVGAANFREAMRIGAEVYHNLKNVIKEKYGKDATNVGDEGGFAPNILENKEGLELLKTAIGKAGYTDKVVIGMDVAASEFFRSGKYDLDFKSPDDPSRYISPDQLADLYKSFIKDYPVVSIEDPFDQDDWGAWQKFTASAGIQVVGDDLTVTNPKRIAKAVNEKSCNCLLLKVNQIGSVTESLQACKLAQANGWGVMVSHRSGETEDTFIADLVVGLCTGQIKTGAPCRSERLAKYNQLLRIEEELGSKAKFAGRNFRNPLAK
UniProt P04114, residues 28-4563: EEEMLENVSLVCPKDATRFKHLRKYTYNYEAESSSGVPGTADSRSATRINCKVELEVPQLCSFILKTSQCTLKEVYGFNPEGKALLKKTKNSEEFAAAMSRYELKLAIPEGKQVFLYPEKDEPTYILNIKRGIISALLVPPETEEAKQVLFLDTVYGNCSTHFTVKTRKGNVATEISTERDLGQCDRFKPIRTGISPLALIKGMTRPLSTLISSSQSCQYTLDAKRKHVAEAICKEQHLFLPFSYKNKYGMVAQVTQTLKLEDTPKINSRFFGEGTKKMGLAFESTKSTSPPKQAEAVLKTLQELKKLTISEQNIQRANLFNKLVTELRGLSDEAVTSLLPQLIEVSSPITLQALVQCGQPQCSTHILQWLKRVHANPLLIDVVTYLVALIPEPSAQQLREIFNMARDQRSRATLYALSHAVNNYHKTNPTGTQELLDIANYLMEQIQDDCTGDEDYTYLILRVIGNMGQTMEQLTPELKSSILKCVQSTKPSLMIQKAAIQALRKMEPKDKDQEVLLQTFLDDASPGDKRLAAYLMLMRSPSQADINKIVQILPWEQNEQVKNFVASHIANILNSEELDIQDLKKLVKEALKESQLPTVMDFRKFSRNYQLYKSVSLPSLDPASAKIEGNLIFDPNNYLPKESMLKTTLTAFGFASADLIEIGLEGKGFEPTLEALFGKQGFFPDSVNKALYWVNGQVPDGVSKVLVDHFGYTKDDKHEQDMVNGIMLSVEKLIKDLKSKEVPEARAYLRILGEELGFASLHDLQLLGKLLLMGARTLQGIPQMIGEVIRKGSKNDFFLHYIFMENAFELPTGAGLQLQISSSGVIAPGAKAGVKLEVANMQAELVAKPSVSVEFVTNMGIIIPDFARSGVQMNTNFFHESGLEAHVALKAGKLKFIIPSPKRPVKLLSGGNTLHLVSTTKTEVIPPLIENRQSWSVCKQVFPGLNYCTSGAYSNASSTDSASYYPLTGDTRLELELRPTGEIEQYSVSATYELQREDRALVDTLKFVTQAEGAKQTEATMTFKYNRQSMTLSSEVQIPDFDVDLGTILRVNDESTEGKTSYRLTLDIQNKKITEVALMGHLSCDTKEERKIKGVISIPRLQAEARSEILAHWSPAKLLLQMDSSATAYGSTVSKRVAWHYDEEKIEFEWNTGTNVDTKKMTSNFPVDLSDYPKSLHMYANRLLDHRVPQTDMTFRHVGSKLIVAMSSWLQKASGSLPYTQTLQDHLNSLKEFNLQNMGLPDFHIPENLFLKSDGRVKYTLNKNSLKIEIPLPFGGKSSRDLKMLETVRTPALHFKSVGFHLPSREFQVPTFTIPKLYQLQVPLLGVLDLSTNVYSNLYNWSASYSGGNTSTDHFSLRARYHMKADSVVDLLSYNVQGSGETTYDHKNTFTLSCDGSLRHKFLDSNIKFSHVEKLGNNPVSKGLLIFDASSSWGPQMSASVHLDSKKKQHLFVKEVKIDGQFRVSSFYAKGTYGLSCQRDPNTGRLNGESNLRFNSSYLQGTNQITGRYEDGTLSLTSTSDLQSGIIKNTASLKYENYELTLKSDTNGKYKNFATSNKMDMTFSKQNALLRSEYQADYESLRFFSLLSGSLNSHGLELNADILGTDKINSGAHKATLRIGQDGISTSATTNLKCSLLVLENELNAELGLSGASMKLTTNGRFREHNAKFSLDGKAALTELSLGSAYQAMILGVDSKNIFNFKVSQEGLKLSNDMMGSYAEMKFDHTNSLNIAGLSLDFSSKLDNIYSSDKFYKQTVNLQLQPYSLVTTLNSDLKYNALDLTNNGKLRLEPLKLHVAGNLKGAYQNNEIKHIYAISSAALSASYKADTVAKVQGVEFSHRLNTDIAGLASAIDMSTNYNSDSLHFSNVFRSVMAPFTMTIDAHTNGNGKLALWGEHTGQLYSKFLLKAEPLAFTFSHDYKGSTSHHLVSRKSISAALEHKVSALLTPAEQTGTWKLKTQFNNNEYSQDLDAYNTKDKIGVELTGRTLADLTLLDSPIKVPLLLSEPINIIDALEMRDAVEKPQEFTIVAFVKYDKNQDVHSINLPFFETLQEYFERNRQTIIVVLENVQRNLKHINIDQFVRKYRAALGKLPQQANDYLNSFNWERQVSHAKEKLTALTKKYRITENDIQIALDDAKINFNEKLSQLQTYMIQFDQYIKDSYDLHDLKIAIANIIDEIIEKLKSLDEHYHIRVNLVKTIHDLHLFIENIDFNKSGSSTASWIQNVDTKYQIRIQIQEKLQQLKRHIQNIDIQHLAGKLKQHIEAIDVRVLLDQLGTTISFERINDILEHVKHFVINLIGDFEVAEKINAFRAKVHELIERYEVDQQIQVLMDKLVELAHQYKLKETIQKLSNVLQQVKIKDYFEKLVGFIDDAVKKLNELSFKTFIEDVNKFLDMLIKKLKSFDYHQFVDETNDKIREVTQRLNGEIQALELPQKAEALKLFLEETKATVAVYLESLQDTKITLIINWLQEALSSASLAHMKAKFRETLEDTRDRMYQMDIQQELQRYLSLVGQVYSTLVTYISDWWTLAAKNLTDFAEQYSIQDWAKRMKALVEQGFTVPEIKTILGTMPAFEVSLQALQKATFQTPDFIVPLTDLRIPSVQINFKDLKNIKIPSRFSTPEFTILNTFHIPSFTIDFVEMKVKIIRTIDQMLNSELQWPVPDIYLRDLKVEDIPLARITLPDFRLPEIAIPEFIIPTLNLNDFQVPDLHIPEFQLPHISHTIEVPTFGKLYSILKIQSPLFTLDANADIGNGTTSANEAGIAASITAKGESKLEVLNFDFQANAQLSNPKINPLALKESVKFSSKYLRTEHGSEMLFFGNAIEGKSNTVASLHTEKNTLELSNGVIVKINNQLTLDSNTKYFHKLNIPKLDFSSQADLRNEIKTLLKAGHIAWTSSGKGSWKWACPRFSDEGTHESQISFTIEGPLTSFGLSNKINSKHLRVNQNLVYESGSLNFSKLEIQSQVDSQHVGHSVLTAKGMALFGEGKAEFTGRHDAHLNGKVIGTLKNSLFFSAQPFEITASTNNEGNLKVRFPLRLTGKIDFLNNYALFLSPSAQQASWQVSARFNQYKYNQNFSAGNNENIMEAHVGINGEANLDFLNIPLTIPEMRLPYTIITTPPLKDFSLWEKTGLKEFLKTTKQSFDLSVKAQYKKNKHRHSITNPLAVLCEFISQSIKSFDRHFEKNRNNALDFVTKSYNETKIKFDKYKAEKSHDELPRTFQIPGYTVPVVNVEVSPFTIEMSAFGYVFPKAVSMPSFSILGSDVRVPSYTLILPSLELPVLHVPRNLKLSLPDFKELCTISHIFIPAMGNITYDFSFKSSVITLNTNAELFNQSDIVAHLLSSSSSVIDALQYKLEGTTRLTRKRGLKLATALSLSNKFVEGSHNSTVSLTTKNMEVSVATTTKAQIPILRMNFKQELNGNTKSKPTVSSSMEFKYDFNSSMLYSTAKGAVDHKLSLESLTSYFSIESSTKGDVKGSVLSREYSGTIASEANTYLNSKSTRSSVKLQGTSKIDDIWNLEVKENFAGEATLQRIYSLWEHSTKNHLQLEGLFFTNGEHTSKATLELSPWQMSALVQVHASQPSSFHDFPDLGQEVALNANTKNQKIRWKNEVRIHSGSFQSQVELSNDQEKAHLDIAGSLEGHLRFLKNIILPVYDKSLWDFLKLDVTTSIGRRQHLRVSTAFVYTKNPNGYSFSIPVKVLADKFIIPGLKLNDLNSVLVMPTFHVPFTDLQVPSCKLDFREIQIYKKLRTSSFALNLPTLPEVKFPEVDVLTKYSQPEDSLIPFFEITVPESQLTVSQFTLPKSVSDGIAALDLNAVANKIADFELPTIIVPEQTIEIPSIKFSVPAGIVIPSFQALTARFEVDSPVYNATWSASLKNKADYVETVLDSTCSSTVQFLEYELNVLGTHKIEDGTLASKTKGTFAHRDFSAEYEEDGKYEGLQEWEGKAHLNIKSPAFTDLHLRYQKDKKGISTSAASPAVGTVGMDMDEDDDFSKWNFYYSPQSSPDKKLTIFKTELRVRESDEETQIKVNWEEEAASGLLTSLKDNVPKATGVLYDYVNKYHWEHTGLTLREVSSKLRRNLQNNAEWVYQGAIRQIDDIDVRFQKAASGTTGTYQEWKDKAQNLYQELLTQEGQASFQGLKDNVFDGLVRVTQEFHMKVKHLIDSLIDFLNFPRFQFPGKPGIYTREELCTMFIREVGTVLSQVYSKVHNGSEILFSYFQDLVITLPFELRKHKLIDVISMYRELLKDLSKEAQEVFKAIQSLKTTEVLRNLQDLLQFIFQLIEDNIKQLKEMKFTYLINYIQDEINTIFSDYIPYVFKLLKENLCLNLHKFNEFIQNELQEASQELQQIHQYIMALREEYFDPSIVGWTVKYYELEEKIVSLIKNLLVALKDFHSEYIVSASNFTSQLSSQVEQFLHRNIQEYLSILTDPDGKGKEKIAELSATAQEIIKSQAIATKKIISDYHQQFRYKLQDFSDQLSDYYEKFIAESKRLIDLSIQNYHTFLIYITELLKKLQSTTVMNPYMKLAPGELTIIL

These are yes or no findings as the source states them, for the method shown. In cells and extracts the contact can be indirect. Here binding means that the protein was enriched with, or labelled near, the bait; the list need not be complete.

With “apolipoprotein B100 (apoB100) (from UniProt P04114 28-4563) (ligand)”, the binding result is listed as “binds”.

The values are drawn from patent publication US20210221847A1.
